In PubChem BioAssay AID1347076 (National Center for Advancing Translational Sciences (NCATS), 2019):
In all, about 400,000 compounds went through this assay and about 13,000 (3.2%) were called active. The shares of active, inactive and inconclusive entries below differ from those in the screen. The call rests on the fitted dose curve; in most records, active means well fitted cell-killing curve with a large enough effect; inconclusive means small, poorly fitted or top-dose-only effect, or effect the other way; inactive means flat fitted curve, though single readings scatter. Potencies of inconclusive entries are doubtful fits and often do not repeat.

Test: qHTS assay for MDR1-selective chemotherapeutics: Primary screen using the drug-selected MDR subline cells KB-V1; further: nearly all actives have a fitted effect of over 60% in size
Settings: KB-V1 MDR cells viability, CellTiter-Glo, 72 h; activity change, negative = cytotoxicity: at 46.1 µM (top of the series)
How it was run: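 Cytotoxicity toward P-gp-expressing KB-V1 cells was determined as loss of CellTiter-Glo luminescence after 72 h at 37 degrees C. Compounds were tested in quantitative HTS format across a concentration range, with curves fitted to normalized data.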
On the % scale 0 is the no-effect control and ±100 the full control effect; potency means the concentration at half of the fitted maximal effect.

Row | SMILES | Potency | activity change, negative = cytotoxicity
1 | CCOC(=O)Nc1cccc(OCC(=O)Nc2ccc(OC)cc2OC)c1 | inactive | 
2 | O=C1C=CC(c2ccccc2)(c2ccccc2)CC1 | inconclusive: 29.1 µM [rising, single point] | 
3 | COc1cccc(NC(=O)c2cccs2)c1 | inactive | 
4 | CN(/N=C/c1cc(Cl)cc(Cl)c1O)C(=S)NC(C)(C)C | inconclusive: 29.1 µM [cytotoxic, single point] | 
5 | CN(CCCC(=O)Nc1ccccc1F)S(=O)(=O)c1ccc(F)cc1 | inconclusive: 23.1 µM [cytotoxic, single point] | 
6 | Cc1ccc(C)c(NC(=O)C[n+]2ccccc2)c1 | inactive | 
7 | CCOc1ccccc1C(=O)Nc1ccccc1C(N)=O | active: 13 µM | 
8 | CCOc1ccc(OCC)c(NC(=O)Cn2cccc2)c1 | inconclusive: 14.6 µM [cytotoxic, partial curve, poor fit] | 
9 | N=C1S/C(=C\c2ccc(-c3cccc(Cl)c3)o2)C(=O)N1c1nccs1 | inconclusive: 8.2 µM [cytotoxic, partial curve] | 
10 | CCOc1cc(N2CCOCC2)c(OCC)cc1NC(=O)Cc1cccc(OC)c1 | inactive | 
11 | Cc1cc(Cl)ccc1OCCCC(=O)N1CCCCC1 | inactive | 
12 | COc1cc(NC(=O)CN2C(=O)C(c3ccccc3)=NC23CCCCCC3)cc(OC)c1 | inconclusive: 20.6 µM [cytotoxic, single point] | 
13 | FC(F)Oc1ccc(NC(=S)NCc2ccccc2)cc1 | inconclusive: 18.4 µM [cytotoxic, partial curve] | 
14 | COc1ccc(C(=O)N/N=C/c2ccccc2OC(=O)c2ccccc2)cc1 | active: 13 µM | 
15 | COc1ccc([C@H]2CN(c3ccc(OC)cc3)C(=O)[C@@H]2CC(=O)Nc2ccccc2)cc1 | inconclusive: 2.59 µM [cytotoxic, partial curve, poor fit] | 
16 | Cc1cc(N2CCC(C(=O)N3CCN(c4cccc(C)c4C)CC3)CC2)n2ncnc2n1 | inactive | 
17 | O=C(Nc1cccc(NC(=O)c2ccc(-c3cccc(Br)c3)o2)c1)c1ccco1 | active: 23.1 µM | 
18 | CC(=O)Nc1ccc(NC(=O)C/C(C)=N/NC(=O)COc2cc(C)c(Br)cc2Br)cc1 | inactive | 
19 | CC(=O)Nc1ccc(CN2C(=O)C(C)ON=C2c2ccccc2-c2ccco2)cc1 (configuration not stated) | inconclusive: 14.6 µM [cytotoxic, partial curve, poor fit] | 
20 | O=C(O)c1nc(-c2ccccc2)c(C(=O)NC2CC2)[nH]1 | inconclusive: 23.1 µM [cytotoxic, partial curve, poor fit] | 
21 | CCC(Sc1nc2ccccc2c(=O)n1CC1CCCO1)C(=O)NCc1cccnc1 (configuration not stated) | inconclusive: 31.6 µM [cytotoxic, single point] | 
22 | CCOc1ccccc1C(=O)Nc1c(C(=O)Nc2ccc(F)cc2)oc2ccccc12 | inconclusive: 2.31 µM [cytotoxic, partial curve, poor fit] | 
23 | O=C(NC1CC1)c1cc(-c2ccccn2)nc2ccccc12 | inactive | 
24 | O=Cc1ccc(Sc2nnc(-c3ccccc3)o2)c([N+](=O)[O-])c1 | inconclusive: 29.1 µM [cytotoxic, single point] | 

One compound at a time (already shown):
O=C(Nc1cccc(NC(=O)c2ccc(-c3cccc(Br)c3)o2)c1)c1ccco1 as listed: Potency: active: 23.1 µM
O=C(NC1CC1)c1cc(-c2ccccn2)nc2ccccc12 as listed: Potency: inactive
CCC(Sc1nc2ccccc2c(=O)n1CC1CCCO1)C(=O)NCc1cccnc1 (configuration not stated) as listed: Potency: inconclusive: 31.6 µM [cytotoxic, single point]
COc1cccc(NC(=O)c2cccs2)c1 as listed: Potency: inactive

Next part

Row | SMILES | Potency | activity change, negative = cytotoxicity
25 | Cc1ccccc1NC(=S)NNC(=O)c1cccc(Br)c1 |  | inconclusive: -35.6% [cytotoxic]
26 | CC(/C=C1\SC(=S)N(NC(=O)c2cccc(O)c2)C1=O)=C\c1ccccc1 | inconclusive: 25.9 µM [cytotoxic, single point] | 
27 | COC(=O)c1ccc(/C=C2/SC(=S)N(CCCC(=O)Nc3ccccn3)C2=O)cc1 | inconclusive: 9.2 µM [cytotoxic, partial curve, poor fit] | 
28 | O=C(CN1CCCC1)N1c2ccccc2Sc2ccc(C(F)(F)F)cc21 | inconclusive: 18.4 µM [cytotoxic, partial curve] | 
29 | COc1cc(C(=O)NC(=S)Nc2ccc(NC(=O)c3ccco3)cc2)cc(OC)c1OC | inconclusive: 0.651 µM [cytotoxic, full curve] | 
30 | CCOc1ccc(N2C(=O)Nc3ccc(Br)cc3C2(O)C(=O)NC(C)C)cc1 (configuration not stated) | inactive | 
31 | COc1ccc(OC)c(NC(=O)COc2ccc(S(=O)(=O)N3CCCC3)cc2)c1 | inconclusive: 20.6 µM [cytotoxic, partial curve, poor fit] | 
32 | COc1ccc(Cc2noc(CN3CCN(c4ccc(Cl)cn4)CC3)n2)cc1OC | active: 3.26 µM | 
33 | CCCCCCOC(=O)c1ccc(N)cc1 | inactive | 
34 | CCCc1cc(=O)oc2cc(C)cc(OC(C)C(=O)N[C@@H](Cc3c[nH]c4ccccc34)C(=O)O)c12 (some centres not stated) | inconclusive: 29.1 µM [cytotoxic, partial curve, poor fit] | 
35 | O=C1c2ccccc2NC(c2ccc3c(c2)OCO3)N1Cc1ccco1 (configuration not stated) | inactive | 
36 | O=C1C2C3C=CC(CC3)C2C(=O)N1/N=C/c1ccc(O)c(O)c1 (configuration not stated) | inactive | 
37 | COc1ccc(C(=O)NCCc2cccc(Cl)c2)cc1OC1CCN(C(C)=O)CC1 | inconclusive: 16.4 µM [cytotoxic, partial curve, poor fit] | 
38 | CC(=O)c1ccc(N2CCN(CC(O)COC(c3ccccc3)c3ccccc3C)CC2)cc1 (configuration not stated) | inactive | 
39 | O=S(=O)(c1ccc(NC(=S)N/N=C/c2ccc(Oc3ccccc3)cc2)cc1)N1CCOCC1 | inconclusive: 18.4 µM [rising, single point] | 
40 | COc1ccc(N2C(=O)c3ccc(C(=O)OC(C)C)cc3C2=O)cc1 | inactive | 
41 | Cc1cc(C)cc(NC(=O)COc2coc(CN3CCc4ccccc4C3)cc2=O)c1 | inconclusive: 20.6 µM [cytotoxic, single point] | 
42 | Cc1nc(-c2ccccn2)nc(N2CCOCC2)c1Cl | inactive | 
43 | O=c1[nH]c(=O)n([C@@H]2O[C@H](CO)[C@@H](O)[C@H]2O)cc1F | inconclusive: 29.1 µM [cytotoxic, single point] | 
44 | C[C@@H]1CN([C@@H](C)CO)C(=O)c2cc(N(C)C)ccc2O[C@@H]1CN(C)S(C)(=O)=O | inactive | 
45 | CNC(=O)c1cc(Nc2nnc(-c3ccc(C)c(S(N)(=O)=O)c3)c3ccccc23)ccc1OC | inconclusive: 29.1 µM [rising, single point] | 
46 | Cc1cc(Br)c(S(=O)(=O)NCc2ccncc2)cc1C | inconclusive: 2.31 µM [cytotoxic, full curve, poor fit] | 
47 | COc1cc(-c2nc3ccc(N4CCN(C)CC4)cc3[nH]2)cc(OC)c1OC | inactive | 
48 | Cc1ccc(S(=O)(=O)N(C)c2cc(S(=O)(=O)N3CCOCC3)c(C)cc2C)cc1 | inconclusive: 5.8 µM [cytotoxic, partial curve, poor fit] | 

Row | SMILES | Potency | activity change, negative = cytotoxicity
49 | COCc1cc([C@@H]2C[C@H]3CN(c4ccccc4)C(=O)[C@]34CCCN24)ccc1OC | inactive | 
50 | CN1CCN(S(=O)(=O)c2cccc3nsnc23)CC1 | inactive | 
51 | CCOC(=O)Nc1ccc2c(c1)N(C(=O)CN1CCN(CCO)CC1)c1ccccc1CC2 | inactive | 
52 | CC(C)(C)OC(=O)N1CCC(NC(=O)c2[nH]cnc2C(=O)Nc2ccccc2F)CC1 | inactive | 
53 | O=C(O)c1ccc(NCCc2ccc(Cl)cc2)c([N+](=O)[O-])c1 | inconclusive: 10.3 µM [rising, partial curve, poor fit] | 
54 | CC(=O)N(C)N(C)c1cc(C)nc(N)n1 |  | inconclusive: 57.6%
55 | C=CCN1C(=O)C(Cc2ccccc2)S/C1=N/N=C/c1cccs1 (configuration not stated) | inactive | 
56 | COc1ccc(-c2sc3cc(OC)c(OC)cc3c2C#CCO)cc1 | inactive | 
57 | CC(=O)c1cccc(-c2ccnc3c2CC(C(=O)Nc2ccc(C(C)C)cc2)O3)c1 (configuration not stated) | inconclusive: 20.6 µM [cytotoxic, single point] | 
58 | O=C(CCc1nc(-c2ccc(Cl)cc2)no1)NC1CCCC1 | inactive | 
59 | COc1ccc(CNC(=O)CSc2nnc3c(Cl)cc(C(F)(F)F)cn23)cc1OC | inconclusive: 32.6 µM [rising, single point] | 
60 | COc1cccc(CN(C)C(=O)c2ccccc2SCC(=O)N2CCCC2)c1 | inconclusive: 16.4 µM [cytotoxic, single point] | 
61 | CCCOc1ccc2oc(=O)c3c(c2c1)CCCN3C(=O)CN1CCc2ccccc2C1 | inconclusive: 18.4 µM [cytotoxic, single point] | 
62 | COc1ccc(OC)c(NS(=O)(=O)c2ccc(NC(C)=O)cc2)c1 | active: 20.6 µM | 
63 | CSc1ccccc1NC(=O)C1CC(c2ccccc2O)=NO1 (configuration not stated) | inconclusive: 13 µM [cytotoxic, partial curve] | 
64 | COc1ccc(C2C(=O)N(CCc3ccccc3)CC(=O)N2C2CCCCC2)cc1 (configuration not stated) | active: 3.66 µM | 
65 | C=CCNCCCOc1ccc(Cl)cc1C(C)(C)C | inconclusive: 29.1 µM [cytotoxic, single point] | 
66 | COc1ccc(C2C(C(=O)O)CC(=O)N2c2ccc(OC)cc2)cc1 (configuration not stated) | inconclusive: 18.4 µM [rising, partial curve, poor fit] | 
67 | CCOc1ccc(CNCc2c(C(=O)O)n(Cc3ccc(C)cc3)c3cc(C)ccc23)cc1 | inconclusive: 16.4 µM [cytotoxic, single point] | 
68 | Cc1ccc(-c2nc(CCN3C(=O)c4ccccc4C3=O)cs2)cc1 | active: 13 µM | 
69 | CC(=O)c1cccc(NC(=O)Nc2ccc3c(c2)N(C)C(=O)CS3)c1 | inconclusive: 29.1 µM [cytotoxic, single point] | 
70 | CC(C)CSc1ncnc2c1oc1nc3c(cc12)COC(C)(C)C3 | inconclusive: 16.4 µM [cytotoxic, single point] | 
71 | CCCCN(CC)CCNC(=O)c1cc2c(=O)[nH]c3ccccc3c2n1C | inconclusive: 16.4 µM [rising, partial curve, poor fit] | 
72 | CCOC(=O)c1[nH]c(C(=O)O)c(CCN(CC)CC)c1C | inactive | 
